# Results published in the supplement of paper PMC8728848.
# Some of the results follow.
# B1: EULS2 M3 (Oryza sativa) (protein)
# chain: MVYCRANPNYAMTARNGAVVLAPANPKDEYQHWIKDMRWSTSIKDEEGYPAFALVNKATGQAIKHSLGQSHPVRLVPYNPEVMDESVLWTESRDVGNGFRCIRMVNNIYLNFDAFHGDKYHGGVRDGTDIVLWKLCEGDSLRWKIQPYYILEQKLISEEDLNSAVDHHHHHH
# Experiments:
# Assay in all cases: glycan array binding signal (z-score within array); higher = stronger binding
# Details in all cases: glycan notation: IUPAC condensed, linker removed
# Fuc(a1-2)Gal = biological target: Fuc(a1-2)Gal
# In short: (§1)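 Negative Z-scores can be read as non-binding. The Z-score is calculated within each array and then averaged across arrays of one protein sequence at different concentrations or buffers and across linkers. Arrays, 3228 in all, were curated from the Consortium for Functional Glycomics database and kept only where the protein sequence was available.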
# Fuc(a1-2)Gal(b1-3)GalNAc = biological target: Fuc(a1-2)Gal(b1-3)GalNAc
# In short: as §1
# [1] = biological target: Fuc(a1-2)Gal(b1-3)GalNAc(a1-3)[Fuc(a1-2)]Gal(b1-4)Glc
# In short: as §1
# [2] = biological target: Fuc(a1-2)Gal(b1-3)GalNAc(a1-3)[Fuc(a1-2)]Gal(b1-4)GlcNAc
# In short: as §1
# [3] = biological target: Fuc(a1-2)Gal(b1-3)GalNAc(b1-3)Gal
# In short: as §1
# [4] = biological target: Fuc(a1-2)Gal(b1-3)GalNAc(b1-3)Gal(a1-4)Gal(b1-4)Glc
# In short: as §1
# [5] = biological target: Fuc(a1-2)Gal(b1-3)GalNAc(b1-4)[Neu5Ac(a2-3)]Gal(b1-4)Glc
# In short: as §1
# Fuc(a1-2)Gal(b1-3)GlcNAc = biological target: Fuc(a1-2)Gal(b1-3)GlcNAc
# In short: as §1
# [6] = biological target: Fuc(a1-2)Gal(b1-3)GlcNAc(b1-2)Man(a1-3)[Fuc(a1-2)Gal(b1-3)GlcNAc(b1-2)Man(a1-6)]Man(b1-4)GlcNAc(b1-4)GlcNAc
# In short: as §1
# [7] = biological target: Fuc(a1-2)Gal(b1-3)GlcNAc(b1-2)Man(a1-3)[Fuc(a1-2)Gal(b1-3)GlcNAc(b1-2)Man(a1-6)]Man(b1-4)GlcNAc(b1-4)[Fuc(a1-6)]GlcNAc
# In short: as §1
# [8] = biological target: Fuc(a1-2)Gal(b1-3)GlcNAc(b1-3)Gal(b1-4)Glc
# In short: as §1
# [9] = biological target: Fuc(a1-2)Gal(b1-3)GlcNAc(b1-3)GalNAc
# In short: as §1
# [10] = biological target: Fuc(a1-2)Gal(b1-3)GlcNAc(b1-3)[Fuc(a1-2)Gal(b1-3)GlcNAc(b1-6)]GalNAc
# In short: as §1
# [11] = biological target: Fuc(a1-2)Gal(b1-3)GlcNAc(b1-3)[Gal(b1-4)GlcNAc(b1-6)]Gal(b1-4)Glc
# In short: as §1
# [12] = biological target: Fuc(a1-2)Gal(b1-3)GlcNAc(b1-3)[Neu5Ac(a2-6)Gal(b1-4)GlcNAc(b1-6)]Gal(b1-4)Glc
# In short: as §1
# [13] = biological target: Fuc(a1-2)Gal(b1-3)GlcNAc6S
# In short: as §1
# [14] = biological target: Fuc(a1-2)Gal(b1-3)[Fuc(a1-4)]GlcNAc
# In short: as §1
# [15] = biological target: Fuc(a1-2)Gal(b1-3)[Fuc(a1-4)]GlcNAc(b1-2)Man(a1-3)[Fuc(a1-2)Gal(b1-3)[Fuc(a1-4)]GlcNAc(b1-2)Man(a1-3)]Man(b1-4)GlcNAc(b1-4)GlcNAc
# In short: as §1
# [16] = biological target: Fuc(a1-2)Gal(b1-3)[Fuc(a1-4)]GlcNAc(b1-2)Man(a1-3)[Fuc(a1-2)Gal(b1-3)[Fuc(a1-4)]GlcNAc(b1-2)Man(a1-6)]Man(b1-4)GlcNAc(b1-4)[Fuc(a1-6)]GlcNAc(b1-4)[Fuc(a1-6)]GlcNAc
# In short: as §1
# [17] = biological target: Fuc(a1-2)Gal(b1-3)[Fuc(a1-4)]GlcNAc(b1-3)[Fuc(a1-3)[Gal(b1-4)]GlcNAc(b1-6)]Gal(b1-4)Glc
# In short: as §1
# [18] = biological target: Fuc(a1-2)Gal(b1-3)[Fuc(a1-4)]GlcNAc(b1-3)[Gal(b1-4)GlcNAc(b1-6)]Gal(b1-4)Glc
# In short: as §1
# Fuc(a1-2)Gal(b1-4)Glc = biological target: Fuc(a1-2)Gal(b1-4)Glc
# In short: as §1
# Fuc(a1-2)Gal(b1-4)Glc6S = biological target: Fuc(a1-2)Gal(b1-4)Glc6S
# In short: as §1
# Fuc(a1-2)Gal(b1-4)GlcNAc = biological target: Fuc(a1-2)Gal(b1-4)GlcNAc
# In short: as §1
# [19] = biological target: Fuc(a1-2)Gal(b1-4)GlcNAc(b1-2)Man
# In short: as §1
# [20] = biological target: Fuc(a1-2)Gal(b1-4)GlcNAc(b1-2)Man(a1-3)[Fuc(a1-2)Gal(b1-4)GlcNAc(b1-2)Man(a1-6)]Man(b1-4)GlcNAc(b1-4)GlcNAc
# In short: as §1
# [21] = biological target: Fuc(a1-2)Gal(b1-4)GlcNAc(b1-2)Man(a1-3)[Fuc(a1-2)Gal(b1-4)GlcNAc(b1-2)Man(a1-6)]Man(b1-4)GlcNAc(b1-4)[Fuc(a1-6)]GlcNAc
# In short: as §1
# [22] = biological target: Fuc(a1-2)Gal(b1-4)GlcNAc(b1-2)[Fuc(a1-2)Gal(b1-4)GlcNAc(b1-4)]Man(a1-3)[Fuc(a1-2)Gal(b1-4)GlcNAc(b1-2)Man(a1-6)]Man(b1-4)GlcNAc(b1-4)GlcNAc
# In short: as §1
# [23] = biological target: Fuc(a1-2)Gal(b1-4)GlcNAc(b1-3)Gal(b1-4)GlcNAc
# In short: as §1
# [24] = biological target: Fuc(a1-2)Gal(b1-4)GlcNAc(b1-3)Gal(b1-4)GlcNAc(b1-2)Man(a1-3)[Fuc(a1-2)Gal(b1-4)GlcNAc(b1-3)Gal(b1-4)GlcNAc(b1-2)Man(a1-6)]Man(b1-4)GlcNAc(b1-4)GlcNAc
# In short: as §1
binder,measurement,setting,value
B1,glycan array binding signal (z-score),Fuc(a1-2)Gal,-0.216
same,glycan array binding signal (z-score),Fuc(a1-2)Gal(b1-3)GalNAc,-0.118
same,glycan array binding signal (z-score),[1],0.339
same,glycan array binding signal (z-score),[2],0.09
same,glycan array binding signal (z-score),[3],-0.394
same,glycan array binding signal (z-score),[4],-0.265
same,glycan array binding signal (z-score),[5],-0.514
same,glycan array binding signal (z-score),Fuc(a1-2)Gal(b1-3)GlcNAc,-0.233
same,glycan array binding signal (z-score),[6],0.145
same,glycan array binding signal (z-score),[7],-0.142
same,glycan array binding signal (z-score),[8],-0.226
same,glycan array binding signal (z-score),[9],-0.773
same,glycan array binding signal (z-score),[10],0.044
same,glycan array binding signal (z-score),[11],-0.311
same,glycan array binding signal (z-score),[12],0.124
same,glycan array binding signal (z-score),[13],-0.14
same,glycan array binding signal (z-score),[14],0.515
same,glycan array binding signal (z-score),[15],0.396
same,glycan array binding signal (z-score),[16],-0.267
same,glycan array binding signal (z-score),[17],-0.237
same,glycan array binding signal (z-score),[18],-0.129
same,glycan array binding signal (z-score),Fuc(a1-2)Gal(b1-4)Glc,-0.561
same,glycan array binding signal (z-score),Fuc(a1-2)Gal(b1-4)Glc6S,-0.417
same,glycan array binding signal (z-score),Fuc(a1-2)Gal(b1-4)GlcNAc,-0.331
same,glycan array binding signal (z-score),[19],-0.24
same,glycan array binding signal (z-score),[20],0.621
same,glycan array binding signal (z-score),[21],0.04
same,glycan array binding signal (z-score),[22],-0.411
same,glycan array binding signal (z-score),[23],0.227
same,glycan array binding signal (z-score),[24],0.177

# Two entries picked at random from the list so far:
binder,measurement,setting,value
B1,glycan array binding signal (z-score),[24],0.177
same,glycan array binding signal (z-score),[21],0.04
